Laboratory results: article PMC3566902
Results are given in words; binding and its absence hold for the method and conditions named. Binding seen in cells or lysates may run through a third protein. Some results given as binding are weak or reduced against the parent protein; the word gives no strength.

Chains of the proteins cited; added tags and fusions are not shown. Residues count along the entry.
UniProt P19022, residues 160-906: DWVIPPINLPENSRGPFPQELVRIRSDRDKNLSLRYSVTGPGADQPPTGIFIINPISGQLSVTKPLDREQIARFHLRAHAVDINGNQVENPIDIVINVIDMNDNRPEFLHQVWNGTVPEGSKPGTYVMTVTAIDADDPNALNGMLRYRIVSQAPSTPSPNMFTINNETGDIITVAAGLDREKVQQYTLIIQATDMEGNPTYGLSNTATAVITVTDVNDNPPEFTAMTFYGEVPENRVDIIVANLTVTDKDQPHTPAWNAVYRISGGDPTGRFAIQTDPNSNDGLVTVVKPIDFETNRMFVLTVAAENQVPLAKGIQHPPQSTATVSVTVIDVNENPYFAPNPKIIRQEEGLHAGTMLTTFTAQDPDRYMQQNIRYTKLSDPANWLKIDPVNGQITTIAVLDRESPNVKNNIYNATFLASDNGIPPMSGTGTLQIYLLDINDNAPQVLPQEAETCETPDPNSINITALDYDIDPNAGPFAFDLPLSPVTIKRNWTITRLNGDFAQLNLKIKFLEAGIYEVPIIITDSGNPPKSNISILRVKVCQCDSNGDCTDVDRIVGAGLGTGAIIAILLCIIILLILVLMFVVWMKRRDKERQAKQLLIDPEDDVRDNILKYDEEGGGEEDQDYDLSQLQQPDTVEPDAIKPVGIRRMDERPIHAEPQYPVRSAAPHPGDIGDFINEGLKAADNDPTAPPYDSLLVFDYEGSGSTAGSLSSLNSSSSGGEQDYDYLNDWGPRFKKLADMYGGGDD

Target: N-cadherin (human (endogenous in HCLE)) (UniProt P19022)
Assay: co-IP; endogenous proteins of HCLE cells (untreated, olomoucine-treated or ShCdk5), lysed in RIPA buffer; 200 μg of extract; immunoprecipitates collected on magnetic beads and immunoblotted

B1: p120 catenin (protein, UniProt O60716 1-968)
chain: MDDSEVESTASILASVKEQEAQFEKLTRALEEERRHVSAQLERVRVSPQDANPLMANGTLTRRHQNGRFVGDADLERQKFSDLKLNGPQDHSHLLYSTIPRMQEPGQIVETYTEEDPEGAMSVVSVETSDDGTTRRTETTVKKVVKTVTTRTVQPVAMGPDGLPVDASSVSNNYIQTLGRDFRKNGNGGPGPYVGQAGTATLPRNFHYPPDGYSRHYEDGYPGGSDNYGSLSRVTRIEERYRPSMEGYRAPSRQDVYGPQPQVRVGGSSVDLHRFHPEPYGLEDDQRSMGYDDLDYGMMSDYGTARRTGTPSDPRRRLRSYEDMIGEEVPSDQYYWAPLAQHERGSLASLDSLRKGGPPPPNWRQPELPEVIAMLGFRLDAVKSNAAAYLQHLCYRNDKVKTDVRKLKGIPVLVGLLDHPKKEVHLGACGALKNISFGRDQDNKIAIKNCDGVPALVRLLRKARDMDLTEVITGTLWNLSSHDSIKMEIVDHALHALTDEVIIPHSGWEREPNEDCKPRHIEWESVLTNTAGCLRNVSSERSEARRKLRECDGLVDALIFIVQAEIGQKDSDSKLVENCVCLLRNLSYQVHREIPQAERYQEAAPNVANNTGPHAASCFGAKKGKDEWFSRGKKPIEDPANDTVDFPKRTSPARGYELLFQPEVVRIYISLLKESKTPAILEASAGAIQNLCAGRWTYGRYIRSALRQEKALSAIADLLTNEHERVVKAASGALRNLAVDARNKELIGKHAIPNLVKNLPGGQQNSSWNFSEDTVISILNTINEVIAENLEAAKKLRETQGIEKLVLINKSGNRSEKEVRAAALVLQTIWGYKELRKPLEKEGWKKSDFQVNLNNASRSQSSHSYDDSTLPLIDRNQKSDKKPDREEIQMSNMGSNTKSLDNNYSTPNERGDHNRTLDRSGDLGDMEPLKGTTPLMQDEGQESLEEELDVLVLDDEGGQVSYPSMQKI
For B1, the binding was “binds”.
